The record followed here is PubChem BioAssay AID1508600 (Functional Genomics Laboratory (NCATS/FGL), 2020).

In all, about 53,000 sequences went through this assay and about 3,700 (7%) were called active.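 How the source made its calls: active means gene knockdowns whose robust z-score for IL-1 alpha signal is at least 2 or at most -2, so actives lie on both sides; inactive means the rest.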 This is one part of the list.

A short description of this experiment: Components of the Cytosolic LPS Sensing Pathway: Gene Identification via Genome-wide siRNA Screen.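 Further: robust z of the log signal after scaling to non-targeting control siRNA wells of the plate.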 As to conditions: RAW264.7 macrophages, IL-1a HTRF, actives lie on both sides, screened at 100 nM (by protocol), cells primed 5 h with Pam3CSK4 first. The gist of the method:
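Supernatant IL-1a by HTRF from RAW264.7 cells primed with Pam3CSK4 (5 hours) and transfected with LipidA (24 hour) after 48h siRNA knockdown at 100 nM; cell viability checked with CellTiter-Glo.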
Consider “CGGACACACUUUGUUAUUATT against 4833420G17Rik”, for which the z-score was inactive: 0.198.
For the sequence GCCCUGAAAUGAAACUGCUTT against Tmem80, the z-score is inactive: 0.691.
Then GGAUAUAAGGAAAACCAGATT against Rab2a, with inactive: -0.539; and GGGCUAUAUAUAUUUCCACTT against Asns, with active: 2.75; and “GCGACUUGUCCUAUUUCGATT against Csgalnact1”, with inactive: 0.261.
Then “GGUACCAUUCGUUCAAACCTT against 3830406C13Rik”, with inactive: 0.416; and GGACUUUGUCAACCUGAUGTT against Rhbdl3, with inactive: 0.395; and GCACCAUACUAGGAUCUGCTT against Slc24a5, with inactive: 0.924.
Then GGUAGAGAGGAAUUCAUAATT against Lrp11, with inactive: -1.56; and GCCUAAACCUGAGUUAUAATT against Lrig1, with active: 2.34.
ACUGGAUACUCCACUCAACTT against Olfr46: the z-score is inactive: -1.62.
For GCCUGUCAACUACCCAUAUTT against Ergic3 the value was inactive: -1.13.
For CGACUUCAUAAGGUAUGCATT against Tnfrsf22 the value was inactive: -0.793; for GCCGAGAUGAGCUCCUAAUTT against Krt27, inactive: 1.29.
With GGAACAGUUCAAGUGAAGCTT against Sertad2, the z-score is inactive: -0.0174.
Take CGCACAGACUUGCUUGGACTT against Deup1: the z-score was inactive: -0.557.
For GGGAGAGUGGAUCAUCAAUTT against P2ry10, the z-score is inactive: -0.0942.
As for GGUUAAGGAUGCUCAAGUATT against Krt20, the z-score was inactive: -0.187.
On to GGGCGGUAAAGAUUUCCUUTT against Scn3b, for which the z-score is inactive: 0.577.
Turning to GCAGUAGCGACGAAGGAUGTT against Rnf113a2, the z-score was active: -2.12.
For “GGAAAUAGAUCCUUUUUGATT against 2510039O18Rik” the value was inactive: 0.861; for “GGCAACUUCACAACAUGCCTT against D630044L22Rik”, inactive: -0.948; for GGAAUUUGACCUUACUACUTT against Usb1, inactive: 1.31.
For GGCUGUGCUUUCUCUUGAUTT against Map11 the value was inactive: -0.314; for GAACUCAAAGAAUAAAUCCTT against Ms4a6d, inactive: -0.0867.
Consider GCAAGCUUCAAGAAGUAAGTT against Cenph, for which the z-score is inactive: 0.224.
Then GGAGAAGUAGAUGUAUAUGTT against Prkar1b, with inactive: -1.4; and GCUCUUUUAAUAUCACUGCTT against Heyl, with inactive: -0.516; and GGAAGAAUGUGGAGGCUAUTT against Tnni1, with inactive: 0.367.
GGUCGUAUGGUGCUCAAGATT against Pira1: the z-score was inactive: -1.76.
Regarding CCUCUUAAAACUAAAUCUGTT against Snw1, the z-score was inactive: 0.208.
For GGAUCCUAAAACUGAGGAATT against Crtc2 the value was inactive: 0.22.
Take GGUUUAUGGAGCAAGUGAUTT against Actr3: the z-score is active: -2.07.
Then GCCUCAUAAAUAACGUGAATT against Nts, with inactive: 0.156; and GGAAGCCUUUCAGAAGACCTT against Akr1b8, with inactive: -0.184.
Then GGUUAACACCUUCAUGUCCTT against Ntsr1, with inactive: 0.00916; and GGGUAGUUGUUACUGUUGUTT against Sprr2f, with inactive: 0.229; and CGAGUGACCAAAAUUUGGATT against Spata31, with inactive: 1.06.
GCUGGGAAGACGUAUGAGGTT against Snx9: the z-score was inactive: 0.549.
Then GGAAUGAGUUUCACAGUUUTT against Fech, with inactive: -0.291; and CCAGUCAGUCAAUUAGACUTT against Pja1, with inactive: 1.17.
Then GCUUCACCAGAGAUGGAAUTT against Slfn3, with inactive: -0.566; and CGAAUGACCUCGAUAGCUGTT against Gm5082, with inactive: 0.195.
For GCGAUUAAGAGCACUUGACTT against Aoc2 the value was inactive: -0.599.
Consider GGUGAGAAUUUGAGAAAGATT against Dgka, for which the z-score was inactive: -0.719.
For the sequence GGAACUAAAUGUGAAACAUTT against Ift52, the z-score is active: -2.07.
For GGCUAGAUCCAAUGCUUCUTT against Dlgap1, the z-score is inactive: 0.65.
As to CCGCAUGUAUCAUAUCAAATT against Dhx37, the z-score is inactive: 1.08.
In the case of GGUCUUUGUCAUCAAAGGUTT against Slc6a20a, the z-score was inactive: -0.071.
For GCCUGAAGAGAGUCUUAUCTT against Bnip5 the value was inactive: 1.09; for GCAGCAGUGUGGUGACUGUTT against Erich2, inactive: -0.0516; for GGGUUGGUAUAGCUUUCAGTT against Zfp619, inactive: -0.948.
Then GGAAGCAAGCAACAUCUUGTT against Ttc34, with inactive: -0.0543; and GGAGGAAAAGGAAAGAGAATT against Fgd1, with inactive: -0.638; and GGUAUGCUAACAGAACACGTT against Nr1h4, with active: 3.15.
For GGACCAGUUAAAGUGGCAGTT against Oas1e the value was inactive: -0.00736; for “GGGACAGAUGGUCGAUGAATT against E130308A19Rik”, inactive: 0.176.
Regarding GGCAGCUGAAGAUUAUGGATT against Tagln, the z-score is inactive: 0.837.
For UAUCCUAUGGCUUUCCUGGTT against Olfr485 the value was inactive: -1.48; for GGAGUUAUUUCCUAGAACATT against Rsad2, inactive: 0.129; for GGAGAUAGAGACCCUAGUGTT against Tas2r124, inactive: -0.443.
Consider GGCAGUUCGUCAGCUUCAUTT against Bhmt, for which the z-score was inactive: -1.69.
For GCACCUUUGCAUAUCUAAATT against Olfr115 the value was inactive: -0.121.
Then GACUUCAGGCACACAUUGCTT against Cdc42ep5, with inactive: 0.989; and GGAGGUUGUAAUAGCCUUATT against Rassf8, with inactive: -0.62.
Then GCGUGUUCAACACCAACUUTT against Rdh8, with inactive: 0.635.
On to GGAAGAGCAAAUAUGAGAATT against Syp, for which the z-score is inactive: -1.11.
For GCUUCGAGUUACAAUGUCATT against Fbxw15 the value was inactive: -0.912.
